{
  "source": "PubChem BioAssay AID1347076",
  "about": "(National Center for Advancing Translational Sciences (NCATS), 2019)",
  "note": "The whole screen tested about 400,000 compounds, of which about 13,000 (3.2%) were called active. Inconclusive results, whose numbers are uncertain, are shown with a selection of clear calls. The call rests on the fitted dose curve; in most records, active means well fitted cell-killing curve with a large enough effect; inconclusive means small, poorly fitted or top-dose-only effect, or effect the other way; inactive means flat fitted curve, though single readings scatter. Where the call is inconclusive, the potency comes from a doubtful curve fit. On the % scale 0 is the no-effect control and ±100 the full control effect; potency means the concentration at half of the fitted maximal effect.",
  "data": [
    {"assay": "qHTS assay for MDR1-selective chemotherapeutics: Primary screen using the drug-selected MDR subline cells KB-V1; further: nearly all actives have a fitted effect of over 60% in size", "settings": "KB-V1 MDR cells viability, CellTiter-Glo, 72 h; activity change, negative = cytotoxicity: at 46.1 µM (top of the series)", "summary_of_the_method": "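In this primary screen, KB-V1 cells overexpressing P-gp are incubated with library compounds (lowest to highest concentration) for 72 h at 37 degrees C before a luminescent ATP viability read.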", "values": [
      {"compound": "Cc1ccc(NC(=O)/C=C/c2ccc([N+](=O)[O-])s2)c(C)c1", "activity change, negative = cytotoxicity": "inactive: 0%"},
      {"compound": "COc1ccc(S(=O)(=O)N(C)CC(=O)NC2CCCCC2)cc1OC", "Potency": "inconclusive: 23.1 µM [cytotoxic, single point]"},
      {"compound": "CC1=C(C(=O)Nc2ccccc2C)C(c2ccccn2)n2ncnc2N1", "note": "(stereo not given)", "Potency": "inconclusive: 29.1 µM [rising, partial curve, poor fit]"},
      {"compound": "COC(=O)/C(=C\\Nc1ccc(Cl)cc1Cl)NC(=O)c1ccccc1", "activity change, negative = cytotoxicity": "inactive: -21.6%"},
      {"compound": "CCOC(=O)c1cnn(CCOC(=O)c2ccccc2F)c1NC(=O)c1ccccc1F", "Potency": "inconclusive: 29.1 µM [cytotoxic, single point]"},
      {"compound": "COc1ccccc1NC(=O)CN1CCN(CC(=O)Nc2ccc(C)c(F)c2)CC1", "activity change, negative = cytotoxicity": "inactive: -4.29%"},
      {"compound": "O=C(CCN1CCCCC1)NNC(=S)NC(=O)c1ccc(Br)cc1", "Potency": "inconclusive: 4.61 µM [cytotoxic, full curve]"},
      {"compound": "O=C1C=C(c2ccc3[nH]ccc3c2)C[C@@H](c2ccc(F)cc2)C1", "activity change, negative = cytotoxicity": "inactive: -14.4%"},
      {"compound": "COCCn1c(C)cc(C(=O)CSc2nc3ccccc3c(=O)[nH]2)c1C", "Potency": "inconclusive: 8.2 µM [cytotoxic, partial curve]"},
      {"compound": "Cc1cccc(N2CCN(S(=O)(=O)c3ccc4c(c3)NC(=O)CS4)CC2)c1C", "Potency": "inconclusive: 29.1 µM [cytotoxic, single point]"},
      {"compound": "COCCCn1c(C23CC4CC(CC(C4)C2)C3)n[nH]c1=S", "activity change, negative = cytotoxicity": "inactive: -8.21%"},
      {"compound": "COc1ccc(N2CCN(C(=O)CCN3C(=S)NC(C)(C)CC3C)CC2)cc1", "note": "(stereo not given)", "Potency": "inconclusive: 18.4 µM [cytotoxic, single point]"},
      {"compound": "CC1CCCC(NC(=O)C2c3ccccc3C(=O)N2Cc2cccs2)C1C", "note": "(stereo not given)", "Potency": "inconclusive: 5.8 µM [cytotoxic, partial curve, poor fit]"},
      {"compound": "CCOC(=O)C1CCN(C(=O)CNC(=O)c2nn(-c3ccc(OC)c(Cl)c3)c(=O)c3ccccc23)CC1", "Potency": "inconclusive: 5.17 µM [cytotoxic, partial curve, poor fit]"},
      {"compound": "COc1ccc(NC(=O)CSc2nc(-c3cccc(C)c3)[nH]c2-c2ccccc2)cc1OC", "Potency": "inconclusive: 25.9 µM [cytotoxic, single point]"},
      {"compound": "CC(=O)N1CCc2c(sc3c2c(=O)n(CCc2ccccc2)c(=O)n3Cc2ccccc2C)C1", "Potency": "inconclusive: 23.1 µM [cytotoxic, single point]"},
      {"compound": "O=S1(=O)CC(O)C(N(CCO)C(=S)Nc2ccccc2)C1", "note": "(stereo not given)", "activity change, negative = cytotoxicity": "inconclusive: 31.3%"},
      {"compound": "O=C(CO/N=C/c1ccc(OC(F)F)cc1)NC1CCCCCC1", "Potency": "inconclusive: 29.1 µM [cytotoxic, single point]"},
      {"compound": "O=C(NCc1nnnn1-c1ccc(F)cc1)c1ccc2ccccc2c1", "activity change, negative = cytotoxicity": "inactive: -28.4%"},
      {"compound": "Cc1ccc(C(=O)OCC(=O)N2CC(C)CC(C)C2)cc1S(=O)(=O)N1CCOCC1", "note": "(stereo not given)", "Potency": "inconclusive: 23.1 µM [cytotoxic, single point]"},
      {"compound": "OCC1(CCCc2ccccc2)CCN(Cc2ccc(F)cc2)CC1", "activity change, negative = cytotoxicity": "inactive: -20%"},
      {"compound": "Cc1ccc2c(c1)c1c(n2CC(O)Cn2c(C)nc3ccccc32)C(=O)CCC1", "note": "(stereo not given)", "activity change, negative = cytotoxicity": "inactive: 0.0095%"},
      {"compound": "O=C(COc1ccc(Cl)cc1Cl)NC1CC1", "Potency": "inconclusive: 29.1 µM [cytotoxic, single point]"},
      {"compound": "CCCCNC(=O)C(CC)Sc1nc2sc(C(=O)OC)c(C)c2c(=O)n1N", "note": "(stereo not given)", "Potency": "active: 4.61 µM"},
      {"compound": "COc1ccc(C(O)c2ncc(-c3cccc4ccccc34)[nH]2)cc1F", "note": "(stereo not given)", "Potency": "inconclusive: 29.1 µM [cytotoxic, single point]"},
      {"compound": "CCCC(=O)NC(c1ccccc1Cl)c1c(O)ccc2ccccc12", "note": "(stereo not given)", "Potency": "inconclusive: 18.4 µM [cytotoxic, single point]"},
      {"compound": "COc1ccc(Cl)cc1C(=O)N1CCC2(CC1)CC(=O)c1ccccc1O2", "Potency": "inconclusive: 20.6 µM [cytotoxic, partial curve]"},
      {"compound": "CCOc1ccc(NC(=O)c2c(NCc3cc(OC)c(OC)cc3OC)sc3c2CCCC3)cc1", "activity change, negative = cytotoxicity": "inactive: 12.9%"},
      {"compound": "CCS(=O)(=O)N1CCC(NC(=O)C(Cc2cc(OC)ccc2OC)NC(C)=O)CC1", "note": "(stereo not given)", "Potency": "inconclusive: 29.1 µM [rising, single point]"},
      {"compound": "CC1CCCC(NC(=O)CN2CCN(Cc3ccc(Cl)cc3)C2=O)C1C", "note": "(stereo not given)", "Potency": "inconclusive: 4.61 µM [cytotoxic, full curve]"},
      {"compound": "COc1cccc(CNC(=O)C(c2ccc(Cl)cc2)C(C)C)c1", "note": "(stereo not given)", "Potency": "inconclusive: 29.1 µM [cytotoxic, single point]"},
      {"compound": "CCn1c(C)[n+](CCOC(C)=O)c2cc(Cl)c(Cl)cc21", "Potency": "inconclusive: 13 µM [rising, partial curve, poor fit]"},
      {"compound": "COc1cccc(/C=N/NC(=O)CNC(=O)COc2ccccc2)c1O", "activity change, negative = cytotoxicity": "inactive: -2.85%"},
      {"compound": "CCOC(=O)/C=c1\\s/c(=C\\c2ccc(C)cc2)c(=O)n1CC(=O)NCc1ccco1", "Potency": "inconclusive: 16.4 µM [cytotoxic, partial curve]"},
      {"compound": "CN(CCCNC(=O)c1cccc(N2CCCC2=O)c1)c1ccccc1", "Potency": "inconclusive: 25.9 µM [cytotoxic, single point]"},
      {"compound": "CCOc1cccc2cc(-c3nnc(NCc4ccco4)s3)c(=O)oc12", "activity change, negative = cytotoxicity": "inactive: -15.4%"},
      {"compound": "COc1ccc(N2CCN(C(=O)c3cccc(Br)c3)CC2)c([N+](=O)[O-])c1", "Potency": "inconclusive: 11.6 µM [cytotoxic, partial curve]"},
      {"compound": "COc1cccc(OC)c1-c1cc(CCCc2cc(-c3c(OC)cccc3OC)nc3ccccc23)c2ccccc2n1", "Potency": "inconclusive: 0.731 µM [cytotoxic, full curve, poor fit]"},
      {"compound": "O=C(C(=O)N1CCC(Cc2ccccc2)CC1)c1cccc(Br)c1", "Potency": "inconclusive: 20.6 µM [cytotoxic, single point]"},
      {"compound": "COC(OC)C1(CCc2ccccc2)NC(=O)NC1=O", "note": "(stereo not given)", "activity change, negative = cytotoxicity": "inactive: 14.7%"},
      {"compound": "CN(C)S(=O)(=O)c1cccc(NC(=O)c2ccc(COc3ccccc3)cc2)c1", "Potency": "inconclusive: 29.1 µM [cytotoxic, single point]"},
      {"compound": "CCCC1=Nc2cc(C(=O)NC3CCCCC3)ccc2Sc2ccc(C)cc21", "Potency": "active: 0.82 µM"},
      {"compound": "COc1cccc(CC(=O)Nc2c(C(=O)N3CCN(c4ccccc4F)CC3)oc3ccccc23)c1", "Potency": "inconclusive: 6.51 µM [cytotoxic, partial curve]"},
      {"compound": "C=CC(=O)Nc1cccc(Oc2cc(Cl)nc3[nH]ccc23)c1", "Potency": "active: 18.4 µM"},
      {"compound": "CC1CCCC(NC(=O)CSC2CCCCC2)C1C", "note": "(stereo not given)", "Potency": "inconclusive: 20.6 µM [cytotoxic, single point]"},
      {"compound": "CCOC(=O)c1c(NC(=O)COc2ccccc2)sc(C(C)=O)c1C", "Potency": "inconclusive: 4.61 µM [cytotoxic, full curve]"},
      {"compound": "Cn1cccc1-c1cc(C(=O)N/N=C/c2ccccc2Cl)[nH]n1", "activity change, negative = cytotoxicity": "inactive: 0.193%"},
      {"compound": "Cc1ccc(NC(=O)C2CCN(S(=O)(=O)c3ccc4c(c3)NC(=O)C(C)S4)CC2)cc1Cl", "note": "(stereo not given)", "Potency": "inconclusive: 3.26 µM [cytotoxic, partial curve, poor fit]"},
      {"compound": "O=C(CSc1nnnn1-c1ccccc1)NC(=O)Cc1ccccc1", "Potency": "inconclusive: 29.1 µM [rising, single point]"},
      {"compound": "O=C(CSc1nc(=O)n(Cc2ccncc2)c2c1CCC2)Nc1cccc(F)c1", "activity change, negative = cytotoxicity": "inactive: 6.55%"},
      {"compound": "Cc1cc(C(=O)N2CCC(Cc3ccccc3)CC2)ccc1[N+](=O)[O-]", "Potency": "inconclusive: 29.1 µM [cytotoxic, single point]"},
      {"compound": "CCOC(=O)N1CCN(C(=O)CSCc2nc(-c3ccccc3F)oc2C)CC1", "Potency": "inconclusive: 8.91 µM [cytotoxic, partial curve, poor fit]"},
      {"compound": "c1ccc2c(NCC3CCCO3)nc(N3CCOCC3)nc2c1", "note": "(stereo not given)", "activity change, negative = cytotoxicity": "inactive: -1.48%"},
      {"compound": "O=C(Nc1ccc(Cl)c(Cl)c1)Nc1ccccc1O", "Potency": "inconclusive: 29.1 µM [cytotoxic, single point]"},
      {"compound": "Clc1ccc(-c2cn3cc(Cc4ccccc4)sc3n2)cc1", "Potency": "inconclusive: 23.1 µM [rising, partial curve, poor fit]"},
      {"compound": "COc1cc(C(F)(F)F)c(C(=O)N(C)Cc2cccc(Cl)c2)cn1", "activity change, negative = cytotoxicity": "inactive: -13.7%"},
      {"compound": "Cc1ccc(C(=O)OCC(=O)NCc2ccc3c(c2)OCO3)cc1S(=O)(=O)N1CCOCC1", "activity change, negative = cytotoxicity": "inactive: -2.72%"},
      {"compound": "O=C(/C=C/c1cn(-c2ccccc2)nc1-c1cccs1)NCCN1CCOCC1", "Potency": "inconclusive: 5.17 µM [cytotoxic, single point]"},
      {"compound": "COc1ccc(C(=O)OCCCOC(=O)c2ccc(OC)cc2OC)c(OC)c1", "Potency": "inconclusive: 23.1 µM [cytotoxic, single point]"},
      {"compound": "COc1ccc(S(=O)(=O)N2CCN(CCc3ccccc3)CC2)c(OC)c1", "Potency": "inconclusive: 2.59 µM [cytotoxic, partial curve, poor fit]"},
      {"compound": "COCc1cc(C)nc2sc(C(=O)Nc3ccccc3Br)c(N)c12", "activity change, negative = cytotoxicity": "inactive: -7.23%"},
      {"compound": "Cc1cc(NC(=O)NC(=O)c2ccccc2NC(=O)CN)ccc1Oc1ncc(Br)cn1", "Potency": "inconclusive: 1.46 µM [cytotoxic, full curve, poor fit]"},
      {"compound": "CC(=O)c1ccc(N2CCC(c3cc(-c4ccc(Cl)cc4Cl)n[nH]3)CC2)c([N+](=O)[O-])c1", "Potency": "active: 14.6 µM"},
      {"compound": "COC(=O)c1nn(-c2c(C)n(C)n(-c3ccccc3)c2=O)cc1O", "activity change, negative = cytotoxicity": "inactive: -18.6%"},
      {"compound": "CN(C(=O)c1ccoc1)c1ccc2ccccc2c1", "Potency": "inconclusive: 18.4 µM [cytotoxic, single point]"},
      {"compound": "CC1(C)CC(=O)c2cc(-c3nc(-c4ccc(F)cc4)cs3)c(=O)[nH]c2C1", "Potency": "inconclusive: 20.6 µM [rising, single point]"},
      {"compound": "COc1ccc(Cl)cc1NC(=O)CCN1C(=O)NC(C)(C)C1=O", "activity change, negative = cytotoxicity": "inactive: 4.81%"},
      {"compound": "Cc1csc2nc(NC(=O)c3ccccc3)sc(=O)c12", "activity change, negative = cytotoxicity": "inactive: -7.2%"},
      {"compound": "CCCCOc1ccc(N(CC(=O)NCCOC)C(=O)CCC(=O)Nc2ccccn2)cc1", "activity change, negative = cytotoxicity": "inactive: -30%"},
      {"compound": "COc1ccc(OC)c(/C=N/NC(=O)CCCC(=O)Nc2cccc(Br)c2)c1", "Potency": "inconclusive: 29.1 µM [cytotoxic, single point]"}
    ]}
  ]
}
